Reference: patent EP0888374B1
Results are given in words; binding and its absence hold for the method and conditions named. Some entries that bind do so weakly or less than the wild type.

The chains behind the UniProt entries cited, without tags or fusion partners. Where a name states a change or a piece, a line headed by the entry shows the natural chain unless it says otherwise. Residues count along the entry.
UniProt P02745: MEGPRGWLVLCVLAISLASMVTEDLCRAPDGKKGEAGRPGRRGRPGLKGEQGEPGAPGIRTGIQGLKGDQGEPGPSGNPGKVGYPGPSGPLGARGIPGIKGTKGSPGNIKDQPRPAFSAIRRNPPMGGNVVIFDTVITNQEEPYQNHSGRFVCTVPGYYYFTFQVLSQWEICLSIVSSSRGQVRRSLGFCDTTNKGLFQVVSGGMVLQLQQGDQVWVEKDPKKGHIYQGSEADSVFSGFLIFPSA
UniProt P02743, residues 20-223: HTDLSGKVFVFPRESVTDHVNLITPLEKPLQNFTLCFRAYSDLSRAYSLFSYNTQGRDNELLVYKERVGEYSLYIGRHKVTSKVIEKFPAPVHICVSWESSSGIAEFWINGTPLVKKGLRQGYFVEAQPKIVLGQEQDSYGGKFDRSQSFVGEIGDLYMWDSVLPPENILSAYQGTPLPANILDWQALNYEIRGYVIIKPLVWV

Molecular target: Complement System Protein C1q (UniProt P02745)
Test: nitrocellulose filter assay; competition with 32P-RNA ligand #50 for C1q

binding: binds
Substance: serum amyloid protein (SAP) (from UniProt P02743 20-223) (other; other documents disagree on this pair)
